Assay results: publication PMC5974779, “Prediction of Drug-Induced Hepatotoxicity Using Long-Term Stable Primary Hepatic 3D Spheroid Cultures in Chemically Defined Conditions” (Toxicological Sciences, 2018)

Test system: primary human hepatocytes (PHH) 3D spheroids

Cc1ccccc1C(OCCN(C)C)c1ccccc1 (centres unmarked) [Orphenadrine]
Chemically defined spheroids (this study) 20x: Negative

CN(C)CCN(Cc1cccs1)c1ccccn1 [Methapyrilene]
Chemically defined spheroids (this study) 20x: Negative
